{
  "source": "the supplement of paper PMC12872613",
  "note": "Where a name gives a salt, the structure may show the parent alone. This is one part of the list. Rule as the data show it: active = 0.7 or more and inactive = the rest. Most values come without repeats; read them as rough.",
  "data": [
    {"system": "MiaPaCa-2 CLSA-25", "test": "cell death relative to DMSO vehicle (fraction); higher = more cytotoxic", "conditions": "5 µM; treatment time 48 h; medium cystine 25 µM", "values": [
      {"smiles": "Cc1cc(C)c(S(=O)(=O)N(CCc2cccc(Br)c2)Cc2ccc(-c3cccc(S(C)(=O)=O)c3)cc2)c(C)c1", "cell death": "inactive: 0.116"},
      {"smiles": "OC(Cn1cncn1)(Cn1cncn1)c1ccc(F)cc1F", "note": "[Fluconazole]", "cell death": "inactive: 0.0441"},
      {"smiles": "CCN(CC)CCCC(C)Nc1c2ccc(Cl)cc2nc2ccc(OC)cc12", "note": "(configuration not stated) [Quinacrine dihydrochloride]", "cell death": "inactive: 0.557"},
      {"smiles": "CC1(C)CC(=O)c2c(C(F)(F)F)nn(-c3ccc(C(N)=O)c(N[C@H]4CC[C@H](O)CC4)c3)c2C1", "cell death": "inactive: 0.411"},
      {"smiles": "CC(=O)Oc1cccc2c1C(=O)c1c(OC(C)=O)cc(C(=O)O)cc1C2=O", "note": "[Diacerein]", "cell death": "inactive: -0.0372"},
      {"smiles": "O=C(c1ccc(NS(=O)(=O)c2cccc3cccnc23)cc1)N1CCN(CC2CC2)CC1", "note": "[Mitapivat]", "cell death": "inactive: 0.277"},
      {"smiles": "NNC(=O)c1ccccn1", "note": "[2-Picolinyl hydrazide]", "cell death": "inactive: -0.0369"},
      {"smiles": "Cc1nc(-c2ccc(OCC(C)C)c(C#N)c2)sc1C(=O)O", "note": "[Febuxostat]", "cell death": "active: 0.712"},
      {"smiles": "NC[C@@](O)(c1ccc(Cl)cc1)c1ccc(-c2cn[nH]c2)cc1", "cell death": "active: 0.82"},
      {"smiles": "COc1ccc2c(c1)C(=O)N(CCc1ccc(S(=O)(=O)NC(=O)NC3CCCCC3)cc1)C(=O)C2(C)C", "note": "[Gliquidone]", "cell death": "inactive: 0.0551"},
      {"smiles": "C=CCNC(N)=S", "note": "[Allylthiourea]", "cell death": "inactive: 0.0423"},
      {"smiles": "CCCSc1nc(N[C@@H]2C[C@H]2c2ccc(F)c(F)c2)c2nnn([C@@H]3C[C@H](OCCO)[C@@H](O)[C@H]3O)c2n1", "note": "[Ticagrelor]", "cell death": "inactive: 0.395"}
    ]}
  ]
}
